These are yes or no findings as the source states them, for the method shown. In cells and extracts the contact can be indirect. Some results given as binding are weak or reduced against the parent protein; the word gives no strength.
Target: FLAG-STAT3 (UniProt P40763)
Experiment: co-IP; HeLa cells transfected with FLAG-STAT3 or empty vector, infected with HSV-1 for 4 h; lysates immunoprecipitated with anti-FLAG antibody; western blot for FLAG, pSTAT3 Y705, PSPC1 and β-actin

Sequences of proteins named here, by UniProt entry; tags and fusion partners are left off.
UniProt P40763: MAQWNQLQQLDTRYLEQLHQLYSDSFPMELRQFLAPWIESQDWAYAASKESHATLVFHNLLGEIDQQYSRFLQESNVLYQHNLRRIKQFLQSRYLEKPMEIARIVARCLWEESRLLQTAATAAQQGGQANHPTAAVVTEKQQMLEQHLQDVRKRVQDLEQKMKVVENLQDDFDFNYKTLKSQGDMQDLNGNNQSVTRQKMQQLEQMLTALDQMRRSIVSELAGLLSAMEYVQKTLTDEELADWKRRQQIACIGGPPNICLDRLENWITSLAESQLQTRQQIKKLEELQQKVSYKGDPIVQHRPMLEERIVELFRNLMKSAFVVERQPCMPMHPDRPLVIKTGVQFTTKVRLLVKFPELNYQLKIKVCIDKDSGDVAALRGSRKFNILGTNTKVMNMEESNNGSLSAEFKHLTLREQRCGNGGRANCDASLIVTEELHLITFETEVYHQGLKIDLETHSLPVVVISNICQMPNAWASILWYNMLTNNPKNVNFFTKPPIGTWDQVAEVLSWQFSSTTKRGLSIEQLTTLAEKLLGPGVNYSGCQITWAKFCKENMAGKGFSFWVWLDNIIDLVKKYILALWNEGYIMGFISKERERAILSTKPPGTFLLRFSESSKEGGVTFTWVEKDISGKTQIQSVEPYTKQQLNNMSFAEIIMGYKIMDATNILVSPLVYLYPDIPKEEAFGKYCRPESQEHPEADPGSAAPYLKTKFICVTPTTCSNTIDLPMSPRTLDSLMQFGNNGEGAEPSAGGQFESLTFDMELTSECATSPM

binding: binds
B1: PSPC1 (paraspeckle component 1) (protein, UniProt Q8WXF1 1-523)
chain: MMLRGNLKQVRIEKNPARLRALESAVGESEPAAAAAMALALAGEPAPPAPAPPEDHPDEEMGFTIDIKSFLKPGEKTYTQRCRLFVGNLPTDITEEDFKRLFERYGEPSEVFINRDRGFGFIRLESRTLAEIAKAELDGTILKSRPLRIRFATHGAALTVKNLSPVVSNELLEQAFSQFGPVEKAVVVVDDRGRATGKGFVEFAAKPPARKALERCGDGAFLLTTTPRPVIVEPMEQFDDEDGLPEKLMQKTQQYHKEREQPPRFAQPGTFEFEYASRWKALDEMEKQQREQVDRNIREAKEKLEAEMEAARHEHQLMLMRQDLMRRQEELRRLEELRNQELQKRKQIQLRHEEEHRRREEEMIRHREQEELRRQQEGFKPNYMENREQEMRMGDMGPRGAINMGDAFSPAPAGNQGPPPMMGMNMNNRATIPGPPMGPGPAMGPEGAANMGTPMMPDNGAVHNDRFPQGPPSQMGSPMGSRTGSETPQAPMSGVGPVSGGPGGFGRGSQGGNFEGPNKRRRY
